# Laboratory results taken from the supplement of paper PMC8728848.
# This is one part of the list.
# B1: Layilin (Mus musculus), Q8C351 (protein)
# chain: MQPGAALQAMLLAVLLAKPRDSKGRLLSASDLDPRGGQLVCRGGTRRPCYKVIYFHDAFQRLNFEEAKETCMEDGGQLVSIETEDEQRLIEKFIENLLASDGDFWIGLKRLEEKQSNNTACQDLYAWTDGSTSQFRNWYVDEPSCGSEVCVVMYHQPSAPPGIGGSYMFQWNDDRCNMKNNFICKYHDDKPSTTPSIWPGGEATEPATPLLPEETQKEDTKETFKERREAALNLAYILIPSIPLFLLLVVTSAVCWVWICRRKREQTDPSTKEQHTIWPTPRQENSPNLDVYNVIRKQSEADLAEPRPDLKNISFRVCSGEAMPDDMSCDYENIAVNPSESGFVTLASMESGFVTNDIYEFSPDRMGRSKESGWVENEIYY
# Legend:
# Test in all cases: glycan array binding signal (z-score within array); higher = stronger binding
# Conditions in all cases: glycan notation: IUPAC condensed, linker removed
# GlcA(b1-3)Gal = biological target: GlcA(b1-3)Gal
# Procedure, shortened: (§1)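 The Consortium for Functional Glycomics database supplied 3228 glycan arrays, of which those lacking an available protein sequence were dropped. The binding signal, a within-array Z-score, was averaged across arrays of the same protein sequence and across linkers. Negative scores can be read as non-binding.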
# GlcA(b1-3)GlcNAc = biological target: GlcA(b1-3)GlcNAc
# Procedure, shortened: as §1
# GlcA(b1-6)Gal = biological target: GlcA(b1-6)Gal
# Procedure, shortened: as §1
# [1] = biological target: GlcNAc(a1-3)Gal(b1-4)GlcNAc
# Procedure, shortened: as §1
# [2] = biological target: GlcNAc(a1-4)Gal(b1-3)GlcNAc
# Procedure, shortened: as §1
# [3] = biological target: GlcNAc(a1-4)Gal(b1-4)GalNAc
# Procedure, shortened: as §1
# [4] = biological target: GlcNAc(a1-4)Gal(b1-4)GlcNAc
# Procedure, shortened: as §1
# [5] = biological target: GlcNAc(a1-4)Gal(b1-4)GlcNAc(b1-3)Gal(b1-4)Glc
# Procedure, shortened: as §1
# [6] = biological target: GlcNAc(a1-4)Gal(b1-4)GlcNAc(b1-3)Gal(b1-4)GlcNAc
# Procedure, shortened: as §1
# [7] = biological target: GlcNAc(a1-4)Gal(b1-4)GlcNAc(b1-3)Gal(b1-4)GlcNAc(b1-3)Gal(b1-4)GlcNAc
# Procedure, shortened: as §1
# [8] = biological target: GlcNAc(a1-4)Gal(b1-4)GlcNAc(b1-3)Gal(b1-4)[Fuc(a1-3)]GlcNAc(b1-3)Gal(b1-4)[Fuc(a1-3)]GlcNAc
# Procedure, shortened: as §1
# [9] = biological target: GlcNAc(a1-6)Gal(b1-4)GlcNAc
# Procedure, shortened: as §1
# [10] = biological target: GlcNAc(b1-2)Gal(b1-3)GalNAc
# Procedure, shortened: as §1
# [11] = biological target: GlcNAc(b1-2)Man(a1-3)[GlcNAc(b1-2)Man(a1-6)]Man(b1-4)GlcNAc(b1-4)GlcNAc
# Procedure, shortened: as §1
# [12] = biological target: GlcNAc(b1-2)Man(a1-3)[GlcNAc(b1-2)Man(a1-6)]Man(b1-4)GlcNAc(b1-4)[Fuc(a1-6)]GlcNAc
# Procedure, shortened: as §1
# [13] = biological target: GlcNAc(b1-2)Man(a1-3)[GlcNAc(b1-4)][GlcNAc(b1-2)Man(a1-6)]Man(b1-4)GlcNAc(b1-4)GlcNAc
# Procedure, shortened: as §1
# [14] = biological target: GlcNAc(b1-2)[GlcNAc(b1-4)]Man(a1-3)[GlcNAc(b1-2)Man(a1-6)]Man(b1-4)GlcNAc(b1-4)GlcNAc
# Procedure, shortened: as §1
# [15] = biological target: GlcNAc(b1-2)[GlcNAc(b1-4)]Man(a1-3)[GlcNAc(b1-4)][GlcNAc(b1-2)Man(a1-6)]Man(b1-4)GlcNAc(b1-4)GlcNAc
# Procedure, shortened: as §1
# [16] = biological target: GlcNAc(b1-2)[GlcNAc(b1-4)]Man(a1-3)[GlcNAc(b1-4)][GlcNAc(b1-2)[GlcNAc(b1-6)]Man(a1-6)]Man(b1-4)GlcNAc(b1-4)GlcNAc
# Procedure, shortened: as §1
# [17] = biological target: GlcNAc(b1-2)[GlcNAc(b1-6)]Man(a1-6)[GlcNAc(b1-2)Man(a1-3)]Man(b1-4)GlcNAc(b1-4)GlcNAc
# Procedure, shortened: as §1
# [18] = biological target: GlcNAc(b1-2)[GlcNAc(b1-6)]Man(a1-6)[GlcNAc(b1-2)Man(a1-3)][GlcNAc(b1-4)]Man(b1-4)GlcNAc(b1-4)GlcNAc
# Procedure, shortened: as §1
# GlcNAc(b1-3)Gal = biological target: GlcNAc(b1-3)Gal
# Procedure, shortened: as §1
# [19] = biological target: GlcNAc(b1-3)Gal(b1-3)GalNAc
# Procedure, shortened: as §1
# GlcNAc(b1-3)Gal(b1-4)Glc = biological target: GlcNAc(b1-3)Gal(b1-4)Glc
# Procedure, shortened: as §1
# [20] = biological target: GlcNAc(b1-3)Gal(b1-4)GlcNAc
# Procedure, shortened: as §1
# [21] = biological target: GlcNAc(b1-3)Gal(b1-4)GlcNAc(b1-3)Gal(b1-4)GlcNAc
# Procedure, shortened: as §1
# GlcNAc(b1-3)GalNAc = biological target: GlcNAc(b1-3)GalNAc
# Procedure, shortened: as §1
# GlcNAc(b1-3)Man = biological target: GlcNAc(b1-3)Man
# Procedure, shortened: as §1
# [22] = biological target: GlcNAc(b1-3)[GlcNAc(b1-4)][GlcNAc(b1-6)]GlcNAc
# Procedure, shortened: as §1
# [23] = biological target: GlcNAc(b1-3)[GlcNAc(b1-6)]Gal(b1-4)GlcNAc
# Procedure, shortened: as §1
# [24] = biological target: GlcNAc(b1-3)[GlcNAc(b1-6)]GalNAc
# Procedure, shortened: as §1
# [25] = biological target: GlcNAc(b1-4)Gal(b1-4)GlcNAc
# Procedure, shortened: as §1
# GlcNAc(b1-4)GlcNAc = biological target: GlcNAc(b1-4)GlcNAc
# Procedure, shortened: as §1
# [26] = biological target: GlcNAc(b1-4)GlcNAc(b1-4)GlcNAc
# Procedure, shortened: as §1
# [27] = biological target: GlcNAc(b1-4)GlcNAc(b1-4)GlcNAc(b1-4)GlcNAc(b1-4)GlcNAc
# Procedure, shortened: as §1
# [28] = biological target: GlcNAc(b1-4)GlcNAc(b1-4)GlcNAc(b1-4)GlcNAc(b1-4)GlcNAc(b1-4)GlcNAc
# Procedure, shortened: as §1
# [29] = biological target: GlcNAc(b1-4)[GlcNAc(b1-6)]GalNAc
# Procedure, shortened: as §1
# [30] = biological target: GlcNAc(b1-6)Gal(b1-4)GlcNAc
# Procedure, shortened: as §1
binder,measurement,setting,value
B1,glycan array binding signal (z-score),GlcA(b1-3)Gal,-0.373
same,glycan array binding signal (z-score),GlcA(b1-3)GlcNAc,-0.524
same,glycan array binding signal (z-score),GlcA(b1-6)Gal,-0.043
same,glycan array binding signal (z-score),[1],-0.188
same,glycan array binding signal (z-score),[2],-0.553
same,glycan array binding signal (z-score),[3],-1.4
same,glycan array binding signal (z-score),[4],-0.611
same,glycan array binding signal (z-score),[5],-0.409
same,glycan array binding signal (z-score),[6],5.27
same,glycan array binding signal (z-score),[7],-1.16
same,glycan array binding signal (z-score),[8],0.527
same,glycan array binding signal (z-score),[9],-0.022
same,glycan array binding signal (z-score),[10],-0.029
same,glycan array binding signal (z-score),[11],-0.868
same,glycan array binding signal (z-score),[12],0.537
same,glycan array binding signal (z-score),[13],0.29
same,glycan array binding signal (z-score),[14],-0.096
same,glycan array binding signal (z-score),[15],-0.333
same,glycan array binding signal (z-score),[16],-0.609
same,glycan array binding signal (z-score),[17],2.32
same,glycan array binding signal (z-score),[18],-0.628
same,glycan array binding signal (z-score),GlcNAc(b1-3)Gal,-0.521
same,glycan array binding signal (z-score),[19],3.53
same,glycan array binding signal (z-score),GlcNAc(b1-3)Gal(b1-4)Glc,0.518
same,glycan array binding signal (z-score),[20],0.267
same,glycan array binding signal (z-score),[21],3.11
same,glycan array binding signal (z-score),GlcNAc(b1-3)GalNAc,0.103
same,glycan array binding signal (z-score),GlcNAc(b1-3)Man,0.015
same,glycan array binding signal (z-score),[22],-0.198
same,glycan array binding signal (z-score),[23],-0.29
same,glycan array binding signal (z-score),[24],-0.541
same,glycan array binding signal (z-score),[25],-0.705
same,glycan array binding signal (z-score),GlcNAc(b1-4)GlcNAc,0.261
same,glycan array binding signal (z-score),[26],-0.397
same,glycan array binding signal (z-score),[27],0.009
same,glycan array binding signal (z-score),[28],-0.593
same,glycan array binding signal (z-score),[29],-0.215
same,glycan array binding signal (z-score),[30],0.15

# Exported bar-delimited: part of the list above
binder | measurement | setting | value
B1 | glycan array binding signal (z-score) | [26] | -0.397
same | glycan array binding signal (z-score) | [27] | 0.009
same | glycan array binding signal (z-score) | [28] | -0.593
